Results deposited as PubChem BioAssay AID1508597 (Cure First, 2020)
This is a random part of the about 2,100 reagents, under one of the conditions tested. 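Calls flag viability under 80% in either arm, not effects specific to rucaparib; the reference for percent is not stated.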 A reagent listed more than once was tested more than once; the source does not tell the runs apart. The record does not give: the 100% reference.

Test: 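Genes whose silencing sensitises or protects ovarian cancer cells against rucaparib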 (primary screen)
Cells: human ovarian carcinoma lines grown from tumours: OCI-P5x (papillary serous) and OCI-C5x (clear cell)
Knock-down reagent: siRNA pool against human genes, 1.25 pmol siRNA per well
Timing: 72 h or 96 h, depending on the cell culture
Treatment: rucaparib 20 µM (about IC30) or vehicle, present until read-out
Rucaparib or vehicle: Rucaparib
Cell line: OCI-C5x (clear cell)
Measurement: 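Luminescent ATP-based viability assay read 72 or 96 h after transfection, depending on culture, given as normalised percent viability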
Direction: viability, normalised: higher = more viable cells remaining
Call rule: 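Active when normalised viability falls below 80 percent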
Calls: active = viability under 80%; inactive = viability 80% or more

no.	target	technical replicate	viability, normalised (%)	outcome
1	PRKCA	1	30.2	active
2	PRKCA	1	99.5	inactive
3	PRKCA	2	131	inactive
4	PRKCA	2	34	active
5	PRKCA	3	89.2	inactive
6	PRKCA	3	32.9	active
7	WNK1	1	55	active
8	WNK1	1	63.7	active
9	WNK1	2	40.6	active
10	WNK1	2	61.7	active
11	WNK1	3	62.4	active
12	WNK1	3	34.8	active
13	PADI4	1	39.3	active
14	PADI4	2	46.3	active
15	PADI4	3	47.7	active
16	ITPKC	1	47.3	active
17	ITPKC	2	56	active
18	ITPKC	3	45	active
19	PAPSS2	1	66.4	active
20	PAPSS2	2	49.7	active
21	PAPSS2	3	68.3	active
22	CLDN11	1	49.2	active
23	CLDN11	2	44.5	active
24	CLDN11	3	38.8	active
25	DGKD	1	77.3	active
26	DGKD	2	81.5	inactive
27	DGKD	3	69.5	active
28	GSK3A	1	46.5	active
29	GSK3A	1	41.4	active
30	GSK3A	2	33.1	active
31	GSK3A	2	37.2	active
32	GSK3A	3	51.4	active
33	GSK3A	3	40.5	active
34	MEMO1	1	44.6	active
35	MEMO1	2	30.4	active
36	MEMO1	3	42.8	active
37	CDK15	1	44.4	active
38	CDK15	2	74.3	active
39	CDK15	3	43.8	active
40	ZAR1	1	84.8	inactive
41	ZAR1	2	55.7	active
42	ZAR1	3	52.8	active
43	HHEX	1	67.7	active
44	HHEX	2	57.1	active
45	HHEX	3	48	active
46	MAP3K8	1	60.8	active
47	MAP3K8	2	57	active
48	MAP3K8	3	69.1	active
49	MSH2	1	37.5	active
50	MSH2	1	50	active
51	MSH2	2	47.5	active
52	MSH2	2	39.6	active
53	MSH2	3	43.3	active
54	MSH2	3	47.8	active
55	POU5F1	1	51	active
56	POU5F1	2	43.7	active
57	POU5F1	3	45.3	active
58	HDAC5	1	39.8	active
59	HDAC5	2	48.4	active
60	HDAC5	3	48.4	active
61	NEK9	1	59.3	active
62	NEK9	2	74.2	active
63	NEK9	3	55.4	active
64	HNRNPM	1	59.4	active
65	HNRNPM	2	75.1	active
66	HNRNPM	3	62.2	active
67	FLT3	1	71.8	active
68	FLT3	2	49	active
69	FLT3	3	59.5	active
70	PRDM9	1	41.7	active
71	PRDM9	2	39.5	active
72	PRDM9	3	38.8	active
73	PDE1A	1	41	active
74	PDE1A	2	33.1	active
75	PDE1A	3	38.9	active

In a second layout: 5 of the entries above
MSH2, technical replicate 3 | viability, normalised (%) = 47.8; outcome = active
POU5F1, technical replicate 1 | viability, normalised (%) = 51; outcome = active
POU5F1, technical replicate 2 | viability, normalised (%) = 43.7; outcome = active
POU5F1, technical replicate 3 | viability, normalised (%) = 45.3; outcome = active
HDAC5, technical replicate 1 | viability, normalised (%) = 39.8; outcome = active
